PubChem BioAssay AID743121, NCATS – 2013

Aim: 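Genes whose silencing strengthens cell killing by camptothecin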 (primary screen)
System: MDA-MB-231 cells, a human breast cancer line
Reagent: single siRNA against human genes, 20 nM siRNA (0.8 pmol per well)
Time to read-out: 120 h (drug added 48 h after transfection, read 72 h later)
Challenge: camptothecin 20 nM (about EC30) for 72 h; vehicle 0.1% DMSO in parallel plates
Detection: 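CellTiter-Glo ATP signal, scaled to control siRNA as percent viability; sensitisation given as log2 of untreated divided by camptothecin-treated viability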
Reading the numbers: log2 vehicle/camptothecin viability: higher = stronger sensitisation to camptothecin; viability with camptothecin and viability without drug: higher = more viable cells
Hit rule: 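Active genes have an RSA gene-level p-value below 0.001, computed from the ratios of their separate siRNAs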
Here is an unselected part of about 26,000 reagents. 167 of all reagents (0.63%) were called active. 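Calls are per gene from RSA p-values that are not deposited; an individual active-marked siRNA can sensitise only weakly.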 Unmarked entries are inactive. Reagents against one gene are numbered here.

| target gene | reagent | log2 vehicle/camptothecin viability | viability with camptothecin (% of control) | viability without drug (% of control) |
| --- | --- | --- | --- | --- |
| GHSR (growth hormone secretagogue receptor) | 1 | 0.269 | 41.5 | 49.9 |
| GHSR (growth hormone secretagogue receptor) | 2 | 0.122 | 12.3 | 13.4 |
| GHSR (growth hormone secretagogue receptor) | 3 | 0.347 | 77 | 98 |
| GHSR (growth hormone secretagogue receptor) | 4 | -0.46 | 47 | 34.2 |
| NR1H2 (nuclear receptor subfamily 1 group H member 2) | 1 | 0.0951 | 55.6 | 59.4 |
| NR1H2 (nuclear receptor subfamily 1 group H member 2) | 2 | 0.276 | 65.9 | 79.8 |
| NR1H2 (nuclear receptor subfamily 1 group H member 2) | 3 | -0.0611 | 70 | 67.1 |
| PDZD2 (PDZ domain containing 2) | 1 | -0.176 | 92.8 | 82.1 |
| PDZD2 (PDZ domain containing 2) | 2 | -0.262 | 85.5 | 71.3 |
| PDZD2 (PDZ domain containing 2) | 3 | -0.493 | 39.4 | 28 |
| PDZD2 (PDZ domain containing 2) | 4 | -0.742 | 51.9 | 31 |
| REEP3 (receptor accessory protein 3) | 1 | -0.414 | 121 | 90.6 |
| REEP3 (receptor accessory protein 3) | 2 | 0.00998 | 84.1 | 84.7 |
| REEP3 (receptor accessory protein 3) | 3 | -0.127 | 98.1 | 89.8 |
| REEP3 (receptor accessory protein 3) | 4 | 0.0502 | 77.9 | 80.6 |
| CRELD2 (CRELD disulfide isomerase 2) | 1 | -0.0647 | 91.4 | 87.4 |
| CRELD2 (CRELD disulfide isomerase 2) | 2 | -0.343 | 94 | 74.1 |
| CRELD2 (CRELD disulfide isomerase 2) | 3 | 0.0379 | 106 | 109 |
| CRELD2 (CRELD disulfide isomerase 2) | 4 | 0.12 | 79.6 | 86.5 |
| ADRB3 (adrenoceptor beta 3) | 1 | -0.471 | 58.1 | 41.9 |
| ADRB3 (adrenoceptor beta 3) | 2 | -0.487 | 39.5 | 28.2 |
| ADRB3 (adrenoceptor beta 3) | 3 | 0.155 | 26.3 | 29.3 |
| ADRB3 (adrenoceptor beta 3) | 4 | -0.175 | 46.2 | 40.9 |
| IL12A (interleukin 12A) | 1 | -0.22 | 92.8 | 79.6 |
| IL12A (interleukin 12A) | 2 | -0.212 | 113 | 97.4 |
| IL12A (interleukin 12A) | 3 | 0.106 | 94.2 | 101 |
| LRRC4 (leucine rich repeat containing 4) | 1 | -0.0172 | 65.6 | 64.8 |
| LRRC4 (leucine rich repeat containing 4) | 2 | -0.323 | 103 | 82 |
| LRRC4 (leucine rich repeat containing 4) | 3 | 0.282 | 51.6 | 62.8 |
| MARS2 (methionyl-tRNA synthetase 2, mitochondrial) | 1 | -0.0906 | 101 | 95 |
| MARS2 (methionyl-tRNA synthetase 2, mitochondrial) | 2 | -0.0733 | 122 | 116 |
| MARS2 (methionyl-tRNA synthetase 2, mitochondrial) | 3 | -0.575 | 86.1 | 57.8 |
| HSD17B14 (hydroxysteroid 17-beta dehydrogenase 14) | 1 | -0.208 | 76.5 | 66.2 |
| HSD17B14 (hydroxysteroid 17-beta dehydrogenase 14) | 2 | -0.0549 | 65 | 62.6 |
| HSD17B14 (hydroxysteroid 17-beta dehydrogenase 14) | 3 | 0.0163 | 84.3 | 85.2 |
| HSD17B14 (hydroxysteroid 17-beta dehydrogenase 14) | 4 | 0.163 | 70.6 | 79.1 |
| BOK (BCL2 family apoptosis regulator BOK) | 1 | -0.145 | 101 | 91.4 |
| BOK (BCL2 family apoptosis regulator BOK) | 2 | 0.0406 | 59.7 | 61.4 |
| BOK (BCL2 family apoptosis regulator BOK) | 3 | 0.144 | 48.4 | 53.5 |
| BOK (BCL2 family apoptosis regulator BOK) | 4 | 0.161 | 30.7 | 34.4 |

Continued, starting with the last 2 of the part before.
| target gene | reagent | log2 vehicle/camptothecin viability | viability with camptothecin (% of control) | viability without drug (% of control) |
| --- | --- | --- | --- | --- |
| BOK (BCL2 family apoptosis regulator BOK) | 3 | 0.144 | 48.4 | 53.5 |
| BOK (BCL2 family apoptosis regulator BOK) | 4 | 0.161 | 30.7 | 34.4 |
| ADGRL2 (adhesion G protein-coupled receptor L2) | 1 | -0.0203 | 98.6 | 97.2 |
| ADGRL2 (adhesion G protein-coupled receptor L2) | 2 | -0.179 | 111 | 98.4 |
| ADGRL2 (adhesion G protein-coupled receptor L2) | 3 | -0.202 | 99.4 | 86.5 |
| ADGRL2 (adhesion G protein-coupled receptor L2) | 4 | -0.0164 | 60.8 | 60.2 |
| MUSK (muscle associated receptor tyrosine kinase) | 1 | -0.0106 | 56.4 | 56 |
| MUSK (muscle associated receptor tyrosine kinase) | 2 | 0.0614 | 76.6 | 79.9 |
| MUSK (muscle associated receptor tyrosine kinase) | 3 | 0.282 | 87 | 106 |
| MUSK (muscle associated receptor tyrosine kinase) | 4 | 0.0378 | 108 | 110 |
| GPR173 (G protein-coupled receptor 173) | 1 | -0.224 | 63.5 | 54.4 |
| GPR173 (G protein-coupled receptor 173) | 2 | -0.684 | 96.1 | 59.8 |
| GPR173 (G protein-coupled receptor 173) | 3 | -1.16 | 46.5 | 20.9 |
| GPR173 (G protein-coupled receptor 173) | 4 | -0.36 | 85.9 | 66.9 |
| TRIM21 (tripartite motif containing 21) | 1 | -0.0164 | 59.1 | 58.5 |
| TRIM21 (tripartite motif containing 21) | 2 | 0.195 | 5.43 | 6.22 |
| TRIM21 (tripartite motif containing 21) | 3 | -0.27 | 61.7 | 51.2 |
| TRIM21 (tripartite motif containing 21) | 4 | 0.311 | 30 | 37.2 |
| OR6B3 (olfactory receptor family 6 subfamily B member 3) | 1 | -0.262 | 76.5 | 63.8 |
| OR6B3 (olfactory receptor family 6 subfamily B member 3) | 2 | -0.259 | 74.2 | 62 |
| OR6B3 (olfactory receptor family 6 subfamily B member 3) | 3 | -0.602 | 79 | 52.1 |
| OR6B3 (olfactory receptor family 6 subfamily B member 3) | 4 | -0.344 | 106 | 83.3 |
| CUEDC1 (CUE domain containing 1) | 1 | 0.784 | 47.5 | 81.7 |
| CUEDC1 (CUE domain containing 1) | 2 | -0.079 | 51.5 | 48.7 |
| CUEDC1 (CUE domain containing 1) | 3 | -0.529 | 90.2 | 62.5 |
| TFF1 (trefoil factor 1) | 1 | 0.484 | 25.1 | 35.2 |
| TFF1 (trefoil factor 1) | 2 | 0.175 | 23.8 | 26.8 |
| TFF1 (trefoil factor 1) | 3 | -0.0814 | 40.8 | 38.6 |
| TFF1 (trefoil factor 1) | 4 | 0.17 | 86.4 | 97.1 |
| YARS2 (tyrosyl-tRNA synthetase 2) | 1 | -0.139 | 75.2 | 68.3 |
| YARS2 (tyrosyl-tRNA synthetase 2) | 2 | -0.155 | 91.5 | 82.2 |
| YARS2 (tyrosyl-tRNA synthetase 2) | 3 | -0.158 | 47.2 | 42.3 |
| YARS2 (tyrosyl-tRNA synthetase 2) | 4 | -0.836 | 56.7 | 31.8 |
